Assay results reported in patent US10105357B2, “Indication of antibiotic drugs for preparation of cancer inhibition pharmaceutical composition” (LAUNX BIOMEDICAL CO., LTD., priority 2014, dated 2018).
Where a name gives a salt, the structure may show the parent alone.

Tests used:
[1] = tested on: HI650 (Lung Adenocarcinoma); assay: Cell viability analysis, lung cancer HI650; assay type: cell-based; details: Homo sapiens, NCI-H1650, 72 h, read-out: cell viability (survival rate), H1650
[2] = tested on: A549 (Lung Adenocarcinoma); assay: Cell viability analysis, lung cancer A549; assay type: cell-based; details: Homo sapiens, A549, 72 h, read-out: cell viability (survival rate), A549
[3] = tested on: HepG2 (Hepatocellular Carcinoma); assay: Cell viability analysis, hepatic cancer HepG2; assay type: cell-based; details: Homo sapiens, HepG2, 72 h, read-out: cell viability (survival rate), HepG2
[4] = tested on: TSGH-8301 (Urinary Bladder Carcinoma); assay: Cell viability analysis, bladder cancer TSGH-8301; assay type: cell-based; details: Homo sapiens, 72 h, read-out: cell viability (survival rate), TSGH
[5] = tested on: MKN-45 (Gastric Adenocarcinoma); assay: Cell viability analysis, gastric cancer MKN-45; assay type: cell-based; details: Homo sapiens, MKN-45, 72 h, read-out: cell viability (survival rate), MKN-45
[6] = tested on: PC3 (p53−) (Prostate Adenocarcinoma); assay: Cell viability analysis, prostate cancer PC3; assay type: cell-based; details: Homo sapiens, 72 h, read-out: cell viability (survival rate), PC3
[7] = tested on: MCF7 (Mammary Gland, Adenocarcinoma); assay: Cell viability analysis, breast cancer MCF7; assay type: cell-based; details: Homo sapiens, MCF7, 72 h, read-out: cell viability (survival rate), MCF7
[8] = tested on: HCT116 (p53+) (Colorectal Carcinoma); assay: cells; details: Homo sapiens, HCT-116, 72 h, read-out: cell viability (survival rate), HCT116

| SMILES | viability at 10 µM [1] | viability at 10 µM [2] | viability at 10 µM [3] | viability at 10 µM [4] | viability at 10 µM [5] | viability at 10 µM [6] | viability at 10 µM [7] | viability at 10 µM [8] |
| --- | --- | --- | --- | --- | --- | --- | --- | --- |
| CCC[C@@H]1C[C@@H](C(=O)N[C@@H]([C@H]2O[C@H](SC)[C@H](O)[C@@H](O)[C@H]2O)[C@H](C)Cl)N(C)C1 [Clindamycin] | 63.3% | 128% | 96.5% | 67.2% |  |  |  |  |
| CCn1cc(C(=O)O)c(=O)c2cc(F)c(N3CCN(C)CC3)cc21 [Pefloxacin mesylate] |  |  | 108% |  | 51.6% | 73.2% | 62.9% | 114% |
